Test results published in patent US20260062443A1 (ALEXION PHARMACEUTICALS, INC., priority 2022, published 2026).
The structures given here were assigned with low confidence; some may be wrong.

Amino acid sequences for entries named in this document (tags omitted). Residues count along the entry.
UniProt P09871, 438-688 limits assumed: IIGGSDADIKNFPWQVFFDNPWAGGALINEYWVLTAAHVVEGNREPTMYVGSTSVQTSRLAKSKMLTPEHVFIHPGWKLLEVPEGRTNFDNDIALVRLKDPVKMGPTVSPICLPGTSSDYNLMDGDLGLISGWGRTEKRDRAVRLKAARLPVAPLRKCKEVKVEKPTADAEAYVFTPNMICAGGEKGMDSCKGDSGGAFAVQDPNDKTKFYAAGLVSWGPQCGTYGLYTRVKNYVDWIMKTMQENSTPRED
UniProt P09871, 16-437 partner limits assumed: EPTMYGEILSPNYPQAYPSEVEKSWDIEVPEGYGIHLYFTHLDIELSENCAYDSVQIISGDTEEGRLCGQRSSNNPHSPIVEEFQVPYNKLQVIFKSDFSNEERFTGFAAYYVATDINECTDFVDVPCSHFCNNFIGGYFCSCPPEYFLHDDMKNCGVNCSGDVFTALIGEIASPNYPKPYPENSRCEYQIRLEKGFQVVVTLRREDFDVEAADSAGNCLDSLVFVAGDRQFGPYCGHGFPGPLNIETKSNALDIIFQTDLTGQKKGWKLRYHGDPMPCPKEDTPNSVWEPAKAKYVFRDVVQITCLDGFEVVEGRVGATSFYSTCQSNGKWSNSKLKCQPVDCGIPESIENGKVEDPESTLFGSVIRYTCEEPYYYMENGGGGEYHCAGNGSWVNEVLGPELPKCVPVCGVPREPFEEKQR

Target: Human complement C1s enzyme (Homo sapiens, UniProt P09871)
Experiment: Human C1s enzyme assay
Assay type: biochemical
Conditions: read-out: IC50 (Stars), C1s Inhibiting Activity; human complement C1s enzyme 1.16 nM, substrate Z-L-Lys-SBzl 100 μM, 5 min preincubation
Method: Other standard complement assays are also available.
Human complement C1s enzyme (purified from human serum, Complement Technology, Inc.) at 1.16 nM final concentration was incubated with test compound at various concentrations for 5 min at room temperature in 50 mM Tris, 1 M NaCl, pH 7.5. A synthetic substrate Z-L-Lys-SBzl and DTNB (Ellman's reagent) were added to final concentrations of 100 μM each. Absorbance at 405 nm (A405) was recorded at 30 second intervals for 30 min using a microplate spectrophotometer. IC50 values were calculated by nonlinear regression of complement C1 s reaction rates as a function of test compound concentration.
ND indicates a compound for which the IC50 value is not determined.

Compound | IC50
C[C@@]12C[C@@H]1N(C(=O)CNC(=O)c1ccc(Oc3ccc(F)cc3)cc1)[C@H](C(=O)N[C@H](CO)c1cc3cnccc3[nH]1)C2 | 0.1 to 1 µM
O=C(NCC(=O)N1C[C@H](OC(F)F)C[C@H]1C(=O)NCc1cc2cnccc2s1)c1ccc2c(c1)Oc1ccccc1S2 [Compound 141, (2S,4R)-4-(difluoromethoxy)-1-((phenoxathiine-3-carbonyl)glycyl)-N-(thieno[3,2-c]pyridin-2-ylmethyl)pyrrolidine-2-carboxamide] | < 0.1 µM
C[C@@H](NC(=O)[C@@H]1C[C@]2(C)C[C@@H]2N1C(=O)CNC(=O)c1ccc(Oc2ccc(F)cc2)cc1)c1cc2cnccc2[nH]1 | < 0.1 µM
C[C@@H](NC(=O)[C@@H]1C[C@]2(C)C[C@@H]2N1C(=O)CNC(=O)c1cccc(Oc2ccc(F)cc2)c1)c1cc2cnccc2[nH]1 | < 0.1 µM

Next, values leading:

IC50 | Compound
< 0.1 µM | Cc1ccc(Oc2ccc(C(=O)NCC(=O)N3C[C@H](OC(F)F)C[C@H]3C(=O)N[C@H](C)c3cc4cnccc4[nH]3)cc2)cc1
0.1 to 1 µM | C[C@@H](NC(=O)[C@@H]1C[C@@H](OC(F)F)CN1C(=O)CNC(=O)c1ccc(Oc2ccccc2)cn1)c1cc2cnccc2[nH]1
< 0.1 µM | C[C@@H](NC(=O)[C@@H]1C[C@@H](OC(F)F)CN1C(=O)CNC(=O)c1ccc2c(c1)Oc1ccccc1S2)c1cc2cnccc2[nH]1
< 0.1 µM | C[C@@H](NC(=O)[C@@H]1C[C@@H](OC(F)F)CN1C(=O)CNC(=O)c1ccc(Oc2ccc(F)cc2)cc1)c1cc2cnccc2[nH]1
0.1 to 1 µM | C[C@@H](NC(=O)[C@@H]1CC2(CN1C(=O)CNC(=O)c1ccc(Oc3ccc(F)cc3)cc1)OCCO2)c1cc2cnccc2[nH]1
